Results are given in words; binding and its absence hold for the method and conditions named. For part of these data: Binding seen in cells or lysates may run through a third protein. Some binding calls cover weakened binding; strength is not graded here. For part of these data: Tags and fused reporters may be left off the sequences shown.

Substrate in assay [1]: FBP (FUSE-binding protein) (human) (UniProt Q96AE4)
Kind of assay: affinity purification and immunoprecipitation (data not shown).

Another assay addresses T1, HA-FBP (human, UniProt Q96AE4 1-644).
T1 construct: also called HA-tagged FBP; FBP expression plasmid product; not shown: HA tag from HA-tagged pcDNA3 (Invitrogen)
T1 sequence (looked up): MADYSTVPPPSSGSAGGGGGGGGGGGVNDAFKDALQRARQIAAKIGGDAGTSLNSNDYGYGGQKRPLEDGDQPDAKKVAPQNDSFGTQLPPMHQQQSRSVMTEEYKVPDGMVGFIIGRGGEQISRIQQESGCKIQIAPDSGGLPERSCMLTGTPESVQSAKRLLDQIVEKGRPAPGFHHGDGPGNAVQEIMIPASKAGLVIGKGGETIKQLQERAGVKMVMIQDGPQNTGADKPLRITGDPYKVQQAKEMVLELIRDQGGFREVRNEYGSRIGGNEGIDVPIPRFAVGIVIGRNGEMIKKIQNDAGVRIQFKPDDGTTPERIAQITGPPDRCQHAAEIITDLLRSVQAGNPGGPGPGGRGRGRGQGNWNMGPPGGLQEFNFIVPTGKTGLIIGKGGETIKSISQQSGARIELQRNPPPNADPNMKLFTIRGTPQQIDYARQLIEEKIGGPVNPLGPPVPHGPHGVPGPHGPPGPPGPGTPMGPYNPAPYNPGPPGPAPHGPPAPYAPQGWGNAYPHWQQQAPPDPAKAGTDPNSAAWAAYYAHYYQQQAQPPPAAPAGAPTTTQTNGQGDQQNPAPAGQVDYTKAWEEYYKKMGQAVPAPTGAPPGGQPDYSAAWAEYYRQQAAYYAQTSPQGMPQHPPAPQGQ
Kind of assay: co-immunoprecipitation with anti-myc from 293 cells, western blot. How it is done:
The transfected cells were lysed with the RIPA buffer for 16 hours after the transfection. […] After a protein A-agarose bead had been added to the above reactant, the mixture was incubated further for 1 hour at 4° C. The bead was washed with lysis buffer four times. The precipitated proteins were analyzed by SDS-PAGE and then transferred onto nitrocellulose membranes.
A general note: In western blotting, separated proteins are transferred to a membrane and probed.

The target in assay [2] is T2, PDK-1 (phosphoinositide-dependent kinase) (UniProt O15530).
T2 sequence (looked up): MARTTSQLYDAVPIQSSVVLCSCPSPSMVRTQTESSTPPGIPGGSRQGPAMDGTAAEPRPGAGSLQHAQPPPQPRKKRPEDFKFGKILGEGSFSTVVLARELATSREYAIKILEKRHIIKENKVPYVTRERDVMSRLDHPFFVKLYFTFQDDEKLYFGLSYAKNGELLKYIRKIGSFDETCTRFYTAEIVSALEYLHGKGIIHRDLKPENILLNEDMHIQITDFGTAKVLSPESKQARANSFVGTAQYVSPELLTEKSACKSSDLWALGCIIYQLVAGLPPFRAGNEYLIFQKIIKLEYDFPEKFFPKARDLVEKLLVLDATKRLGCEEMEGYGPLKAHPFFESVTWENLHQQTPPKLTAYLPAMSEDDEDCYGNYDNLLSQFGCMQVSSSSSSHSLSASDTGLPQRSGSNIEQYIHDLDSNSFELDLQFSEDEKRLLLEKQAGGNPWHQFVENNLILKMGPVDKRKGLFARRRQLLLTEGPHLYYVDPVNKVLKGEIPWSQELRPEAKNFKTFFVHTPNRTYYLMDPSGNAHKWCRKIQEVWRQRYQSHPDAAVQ
Nature of the assay: co-immunoprecipitation from HCT116 cells, western blot.

Another assay addresses T3, p38/JTV-1 (human) (UniProt Q13155).
T3 sequence: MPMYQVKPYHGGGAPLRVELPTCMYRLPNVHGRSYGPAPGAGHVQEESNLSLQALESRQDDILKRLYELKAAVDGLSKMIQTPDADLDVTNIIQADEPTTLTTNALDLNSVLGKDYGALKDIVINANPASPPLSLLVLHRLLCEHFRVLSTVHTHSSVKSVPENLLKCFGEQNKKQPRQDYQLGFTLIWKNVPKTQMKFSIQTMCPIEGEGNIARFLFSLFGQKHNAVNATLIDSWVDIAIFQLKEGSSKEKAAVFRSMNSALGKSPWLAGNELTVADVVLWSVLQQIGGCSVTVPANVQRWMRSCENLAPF
Kind of assay: anti-FLAG immunoprecipitation from human embryonic kidney cells, western blot with anti p38/JTV-1.

B1: p38/JTV-1 (protein)
chain: T3 sequence
Consider B1, for which the binding result in assay [1] is reported as “binds”.

B2: myc-(p38/JTV-1), amino acids 1-312 (full length) (other)
chain: T3 sequence
notes: also called myc-tagged p38/JTV-1; p38/JTV-1 expression plasmid product; not shown: myc tag from myc-tagged pcDNA3 (Invitrogen)
On to B2, for which the binding result in the assay with HA-FBP was “binds”.

B3: HA-(p38/JTV-1) (protein, not shown: small tags and cut ends)
chain: T3 sequence
With B3, the binding entry in assay [2] is reported as “binds”.

B4: myc-tagged p38/JTV-1 deletion fragment, amino acids 84-312 (protein, not shown: small tags and cut ends)
chain: DADLDVTNIIQADEPTTLTTNALDLNSVLGKDYGALKDIVINANPASPPLSLLVLHRLLCEHFRVLSTVHTHSSVKSVPENLLKCFGEQNKKQPRQDYQLGFTLIWKNVPKTQMKFSIQTMCPIEGEGNIARFLFSLFGQKHNAVNATLIDSWVDIAIFQLKEGSSKEKAAVFRSMNSALGKSPWLAGNELTVADVVLWSVLQQIGGCSVTVPANVQRWMRSCENLAPF
On to B4, for which the binding result with HA-FBP was “binds”.

B5: FLAG-tagged PDK-1 full-length fragment (amino acids 1-556) (enzyme, UniProt O15530 1-556, looked up, not shown: small tags and cut ends)
chain: T2 sequence (looked up)
Regarding B5, the binding result in the assay with p38/JTV-1 (human) is “binds”.

B6: myc-tagged p38/JTV-1 deletion fragment, amino acids 1-161 (protein, not shown: small tags and cut ends)
chain: MPMYQVKPYHGGGAPLRVELPTCMYRLPNVHGRSYGPAPGAGHVQEESNLSLQALESRQDDILKRLYELKAAVDGLSKMIQTPDADLDVTNIIQADEPTTLTTNALDLNSVLGKDYGALKDIVINANPASPPLSLLVLHRLLCEHFRVLSTVHTHSSVKSV
B6: the binding entry in the assay with HA-FBP was “binds”.

The values above are taken from patent US20040175375A1 (SEOUL NATIONAL UNIVERSITY INDUSTRY FOUNDATION, published 2004).
